Results on 1 molecule are retold here after patent publication US20110189194A1, “USE OF CD95 INHIBITORS FOR THE TREATMENT OF INFLAMMATORY DISORDERS” (Deutsches Krebsforschungszentrum Stiftung des offentlichen …, priority 2008, published 2011).

The subject of this series is neutrophils. In words: Annexin-V staining of neutrophils (apoptosis levels) after SCI or thioglycolate. The series is classed as in vivo, mice. The method, then:
Mice were treated intravenously 5 minutes after SCI or induction of thioglycolate-induced peritonitis with 50 μg (solved in 200 μl sterile PBS) of either CD95-RB69 or a mutated form, CD95-(R87S)-RB69, which is unable to bind CD95L.
Annexin-V staining was performed on the neutrophil population either from the peritoneal exudates or from the injured spinal cord. After gating on the neutrophil population using appropriate markers and characteristic FSC and SSC, the percentage of annexin-V positive cells was determined by using a phycoerythrin-conjugated annexin-V according to the manufacturer's protocol (Calbiochem # CBA060).

B1: CD95-RB69: CD95L-neutralizing trimeric fusion protein: human CD95-ECD (M1-E168) fused to bacteriophage RB69 fibritin foldon domain, with streptag-II (protein)
chain: MVGIWTLLPLVLTSVARLSSKSVNAQVTDINSKGLELRKTVTTVETQNLEGLHHDGQFCHKPCPPGERKARDCTVNGDEPDCVPCQEGKEYTDKAHFSSKCRRCRLCDEGHGLEVEINCTRTQNTKCRCKPNFFCNSTVCEHCDPCTKCEHGIIKECTLTSNTKCKEEGSSGSSGSSGSGYIEDAPSDGKFYVRKDGAWVELPTASGPSSSSSSAWSHPQFEK
modifications: CD95-RB69 fusion protein
notes: CD95L-neutralizing trimeric fusion protein: human CD95-ECD (M1-E168) fused to bacteriophage RB69 fibritin foldon domain, with streptag-II
In the case of B1, the “Apoptosis levels, annexin V % positive cells ± SEM, neutrophils in spinal cord” value (SCI, 24 h after injury) was determined as 9.56 ± 1.19%. Besides, the “Apoptosis levels, annexin V % positive cells ± SEM, thioglycollate-elicited neutrophils” value (thioglycollate-induced peritonitis, 6 h after injection) is given as 4.90 ± 0.67%.
